Assay results from paper doi:10.1101/2022.01.04.474868.
Results are given in words; binding and its absence hold for the method and conditions named. In cells and extracts the contact can be indirect. Some results given as binding are weak or reduced against the parent protein; the word gives no strength. For some assays here: Tags and fused reporters may be left off the sequences shown.

Protein sequences, listed by entry. Tags and fused reporters are not part of them.
UniProt P40763: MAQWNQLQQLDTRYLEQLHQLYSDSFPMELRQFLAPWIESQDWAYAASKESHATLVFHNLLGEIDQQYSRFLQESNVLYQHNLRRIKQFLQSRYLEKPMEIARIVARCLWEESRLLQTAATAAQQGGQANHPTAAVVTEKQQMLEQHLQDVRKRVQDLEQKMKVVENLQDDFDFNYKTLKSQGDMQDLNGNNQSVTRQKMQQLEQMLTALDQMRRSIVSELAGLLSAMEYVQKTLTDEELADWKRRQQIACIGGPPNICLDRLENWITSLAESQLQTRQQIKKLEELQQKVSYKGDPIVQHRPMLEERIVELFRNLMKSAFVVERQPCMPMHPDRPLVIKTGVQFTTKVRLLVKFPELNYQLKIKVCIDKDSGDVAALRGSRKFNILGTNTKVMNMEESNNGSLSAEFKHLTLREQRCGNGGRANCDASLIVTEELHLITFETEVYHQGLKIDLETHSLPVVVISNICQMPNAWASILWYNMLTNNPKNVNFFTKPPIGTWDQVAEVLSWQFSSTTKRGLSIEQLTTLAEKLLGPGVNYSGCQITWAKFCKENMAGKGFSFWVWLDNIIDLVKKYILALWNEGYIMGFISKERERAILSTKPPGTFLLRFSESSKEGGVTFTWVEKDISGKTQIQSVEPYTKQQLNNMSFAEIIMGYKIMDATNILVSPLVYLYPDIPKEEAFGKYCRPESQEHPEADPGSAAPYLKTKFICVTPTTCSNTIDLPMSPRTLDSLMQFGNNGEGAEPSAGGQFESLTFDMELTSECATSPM

Experiments:
[1] = target: T1, endogenous HMGN5 (human (endogenous in MDA-MB-231)) (UniProt P82970); experiment: co-IP
T1 sequence: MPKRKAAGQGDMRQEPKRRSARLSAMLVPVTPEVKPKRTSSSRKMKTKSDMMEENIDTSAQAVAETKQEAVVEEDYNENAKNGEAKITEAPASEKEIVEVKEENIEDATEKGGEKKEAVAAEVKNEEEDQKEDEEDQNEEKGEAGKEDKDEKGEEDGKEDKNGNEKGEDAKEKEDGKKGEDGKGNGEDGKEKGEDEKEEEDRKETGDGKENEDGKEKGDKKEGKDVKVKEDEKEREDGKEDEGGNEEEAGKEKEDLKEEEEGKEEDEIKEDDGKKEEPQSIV

FLAG-HMGN5 = target: T2, FLAG-HMGN5 (UniProt P82970); experiment: co-IP
T2 sequence: T1 sequence

| Substance | binding [1] | binding (FLAG-HMGN5) |
| --- | --- | --- |
| endogenous STAT3 (from UniProt P40763 1-770) | binds |  |
| STAT3 (from UniProt P40763 1-770) |  | binds |
